Source: paper PMC7862700
The list shows a part of the results, in another mix than the full data. For part of these data: At the low end of the ranking the order means little. This is one part of the list. For part of these data: The source does not settle which construct or isoform was used.

Biological target: T1, ETV4 (UniProt P43268)
T1 sequence: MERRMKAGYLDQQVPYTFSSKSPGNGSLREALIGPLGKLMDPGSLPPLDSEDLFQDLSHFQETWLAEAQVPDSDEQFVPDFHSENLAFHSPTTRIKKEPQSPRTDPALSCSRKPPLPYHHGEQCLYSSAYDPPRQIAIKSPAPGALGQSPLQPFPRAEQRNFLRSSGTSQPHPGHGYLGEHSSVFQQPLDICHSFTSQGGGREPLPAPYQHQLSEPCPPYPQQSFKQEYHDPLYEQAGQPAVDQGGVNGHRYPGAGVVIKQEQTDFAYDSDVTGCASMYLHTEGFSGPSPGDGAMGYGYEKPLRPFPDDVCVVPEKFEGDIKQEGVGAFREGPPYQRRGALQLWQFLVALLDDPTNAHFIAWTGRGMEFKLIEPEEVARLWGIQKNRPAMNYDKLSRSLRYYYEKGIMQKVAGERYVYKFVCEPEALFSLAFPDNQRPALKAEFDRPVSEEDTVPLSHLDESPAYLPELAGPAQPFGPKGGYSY
Test: DAPPL (digital affinity profiling via proximity ligation, sequencing)
Conditions: 10 mM Tris-HCl pH 7.5, 50 mM NaCl, 1 mM DTT, 4% glycerol, room temperature, 30 min; GST-TFs on glutathione beads, 16-mer random dsDNA library, 0.1% …; high values mean tight binding; double strand, one strand shown; scale: fold enrichment (6-mer frequency, TF over GST control)

| Sequence | binding signal |
| --- | --- |
| GCTTTT | 1.1 |
| ACTATC | 1.13 |
| GCCGGA | 1.08 |
| ATCGTT | 1.12 |
| CGCCGG | 1.06 |
| CACACC | 1.04 |
| CTTCGT | 1.4 |
| AACGGA | 1.06 |
| ACACTA | 1.13 |
| TATGAT | 1.25 |
| ACACTC | 1.14 |
| AAGAAG | 1.1 |
| ATACGA | 1.17 |
| TCAGTT | 0.996 |
| ACAGCC | 1.02 |
| ACCCGG | 1.54 |
| GTCCGG | 0.956 |
| ACGTCA | 0.96 |
| ATCGCA | 1 |
| TCCGTT | 1.54 |

| Sequence | binding signal |
| --- | --- |
| CCTTAG | 1.21 |
| TTCACA | 1.21 |
| AACTTG | 1.12 |
| TGGATC | 1.07 |
| CCTTTT | 1.6 |
| CAACAC | 1.11 |
| ATAAGG | 1.03 |
| TCCCGG | 2.05 |
| TAAGTT | 1.29 |
| GATACA | 1.01 |
| CGGAAA | 2.07 |
| GGATAC | 1.01 |
| TATTGA | 1.1 |
| AGGATG | 1.01 |
| GCGTAT | 1.02 |
| CGGAAC | 1.15 |
| CCTCCA | 1.39 |
| GTCCTT | 1.25 |
| CAGCAT | 1.03 |
| AGTGCC | 1.06 |

Biological target: T2, ERF (UniProt P50548)
T2 sequence: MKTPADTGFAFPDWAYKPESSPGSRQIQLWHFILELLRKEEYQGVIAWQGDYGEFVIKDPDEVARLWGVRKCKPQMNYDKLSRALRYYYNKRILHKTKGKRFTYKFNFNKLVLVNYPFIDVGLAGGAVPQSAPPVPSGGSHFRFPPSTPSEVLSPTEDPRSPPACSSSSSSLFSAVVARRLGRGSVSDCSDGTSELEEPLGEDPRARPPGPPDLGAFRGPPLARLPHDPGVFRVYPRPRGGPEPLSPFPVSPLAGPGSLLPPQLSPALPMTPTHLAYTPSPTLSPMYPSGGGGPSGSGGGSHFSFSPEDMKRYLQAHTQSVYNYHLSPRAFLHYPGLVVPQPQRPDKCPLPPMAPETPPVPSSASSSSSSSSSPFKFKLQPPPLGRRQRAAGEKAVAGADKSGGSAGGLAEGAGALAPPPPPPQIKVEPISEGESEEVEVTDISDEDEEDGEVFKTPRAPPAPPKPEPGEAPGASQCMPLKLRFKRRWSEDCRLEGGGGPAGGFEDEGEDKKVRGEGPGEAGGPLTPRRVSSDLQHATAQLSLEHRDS
Test: as above
Conditions: 10 mM Tris-HCl pH 7.5, 50 mM NaCl, 1 mM DTT, 4% glycerol, room temperature, 30 min; GST-TFs on glutathione beads, 16-mer random dsDNA library, 0.1% …; high values mean tight binding; double strand, one strand shown; scale: fold enrichment (6-mer frequency, TF over GST control)

| Sequence | binding signal |
| --- | --- |
| GCCGGA | 0.905 |
| CGCCGG | 0.99 |
| AACGGA | 0.995 |
| ACACTC | 1.06 |
| AAGAAG | 1.01 |
| TCAGTT | 0.97 |
| ACAGCC | 1.18 |
| GTCCGG | 0.873 |
| ACGTCA | 0.88 |
| TTCACA | 1.26 |
| TGGATC | 0.935 |
| GATACA | 0.931 |
| CGGAAA | 1.77 |
| GGATAC | 0.909 |
| AGGATG | 0.993 |
| GCGTAT | 0.922 |
| CGGAAC | 0.914 |
| GTCCTT | 1.14 |
| CAGCAT | 0.911 |
| AGTGCC | 0.928 |
